Counter-ions that a name gives are not always drawn. Some of the results follow. Baselines shift from plate to plate; read single values as rough.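 The strain is a K-12 laboratory model grown without shaking in 96-well plates, and biofilm is the crystal violet stain retained on the wells, read as absorbance. Drugs were picked as candidate specific biofilm blockers when they cut staining strongly but slowed free-floating growth by less than 70%.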
What follows are compounds tested on Escherichia coli W3110 (assay: biofilm formation (crystal violet staining) relative to untreated control; higher = more biofilm). Settings: 10 µM; 20-24 h; 30 °C; TB.
CCOc1nc2cccc(C(=O)O)c2n1Cc1ccc(-c2ccccc2-c2nnn[nH]2)cc1 [Candesartan] was tested, and the biofilm formation was 82%. With C[C@@](Cc1ccc(O)c(O)c1)(NN)C(=O)O [Carbidopa] the biofilm formation was 84%. Compound CN(C)CCOC(c1ccccc1)c1ccccc1.Cn1c(=O)c2[nH]c(Cl)nc2n(C)c1=O [Dimenhydrinate] has a biofilm formation of 60%. CN(CCCN1c2ccccc2CCc2ccccc21)CC(=O)c1ccc(Cl)cc1 [Lofepramine] gave a biofilm formation of 71%. O=C1NCC2(CCN(CCc3ccccc3)CC2)O1 [Fenspiride hydrochloride] was tested, and the biofilm formation was 67%. Clc1ccc2c(c1)CCc1cccnc1C2=C1CCNCC1 [Desloratadine] gave a biofilm formation of 66%. With Cc1[nH]cnc1CN1CCc2c(c3ccccc3n2C)C1=O [Alosetron hydrochloride] the biofilm formation was 61%. CCCOc1ccc2[nH]c(NC(=O)OC)nc2c1 [Oxibendazol] showed a biofilm formation of 74%. In the case of O=C(c1ccc(F)cc1)C1CCN(CCn2c(=O)[nH]c3ccccc3c2=O)CC1 [Ketanserin tartrate hydrate], the biofilm formation is reported as 73%. CCN(CC)C(=O)c1ccc(O)c(OC)c1 [Ethamivan] gave a biofilm formation of 94%. In the case of NCCCCCC(=O)O [Aminocaproic acid], the biofilm formation is reported as 84%. CN(C)C(=N)NC(=N)N [Metformin hydrochloride] gave a biofilm formation of 86%. For CC=CC(=O)N(CC)c1ccccc1C [Crotamiton], the biofilm formation was 84%. CNCCc1ccccn1 [Betahistine mesylate] showed a biofilm formation of 74%. For Nc1nc2c(ncn2COC(CO)CO)c(=O)[nH]1 [Ganciclovir], the biofilm formation was 62%. With CO[C@H]1/C=C/O[C@@]2(C)Oc3c(C)c(O)c4c(O)c(c5c(nc6cc(C)ccn65)c4c3C2=O)NC(=O)/C(C)=C\C=C\[C@H](C)[C@H](O)[C@@H](C)[C@@H](O)[C@@H](C)[C@H](OC(C)=O)[C@@H]1C [Rifaximin] the biofilm formation was 33%. O=C1[C@H]2CCCC[C@H]2C(=O)N1CCCCN1CCN(c2nsc3ccccc23)CC1 [Perospirone] gave a biofilm formation of 79%. With Clc1cccc(Cl)c1NC1=NCCN1 [Clonidine hydrochloride] the biofilm formation was 61%. CC(=O)O[C@]1(C(C)=O)CC[C@H]2[C@@H]3C=C(Cl)C4=CC(=O)CC[C@]4(C)[C@H]3CC[C@@]21C [Chlormadinone acetate] gave a biofilm formation of 71%. For CCCNC(=O)NS(=O)(=O)c1ccc(Cl)cc1 [Chlorpropamide], the biofilm formation was 54%. With CCN(CC)C(C)CN1c2ccccc2Sc2ccccc21 (stereo not drawn) [Ethopropazine hydrochloride] the biofilm formation was 67%. For Cc1cc(O)c(C(=O)N[C@@H](C(=O)N[C@@H]2C(=O)N3C(C(=O)O)=C(CSc4nnnn4C)CS[C@H]23)c2ccc(O)cc2)cn1 [Cefpiramide], the biofilm formation was 10%. Work on OCCN1CCN(CC/C=C2/c3ccccc3Sc3ccc(Cl)cc32)CC1 [Zuclopenthixol dihydrochloride] yielded a biofilm formation of 54%. Nc1nc(/C(=C/CC(=O)O)C(=O)N[C@@H]2C(=O)N3C(C(=O)O)=CCS[C@H]23)cs1 [Ceftibuten] was tested, and the biofilm formation was 50%. Nc1ccc(/N=N/c2ccccc2)c(N)n1 [Phenazopyridine hydrochloride] showed a biofilm formation of 58%. With CN(C)CCOC(=O)C(c1ccccc1)C1(O)CCCC1 (stereo not drawn) [Cyclopentolate hydrochloride] the biofilm formation was 85%. CCC(=O)O[C@]1(C(=O)SCF)[C@H](C)C[C@H]2[C@@H]3C[C@H](F)C4=CC(=O)C=C[C@]4(C)[C@@]3(F)[C@@H](O)C[C@@]21C [Fluticasone propionate] showed a biofilm formation of 67%. Work on CC[N+](C)(CC)CCC[n+]1c(-c2ccccc2)c2cc(N)ccc2c2ccc(N)cc21 [Propidium iodide] yielded a biofilm formation of 69%. With O=C(O)c1ccccc1Nc1cccc(C(F)(F)F)c1 [Flufenamic acid] the biofilm formation was 55%. Compound Clc1ccc(C(c2ccccc2Cl)C(Cl)Cl)cc1 (stereo not drawn) [Mitotane] has a biofilm formation of 75%. In the case of O=C1O[C@H]([C@@H](O)CO)C(O)=C1O [Ascorbic acid], the biofilm formation is reported as 64%. Cc1cccc(C)c1OCC(=O)N[C@@H](Cc1ccccc1)[C@@H](O)C[C@H](Cc1ccccc1)NC(=O)[C@H](C(C)C)N1CCCNC1=O [Lopinavir] was tested, and the biofilm formation was 58%. Compound Nc1ccc(C(=O)O)c(O)c1 [4-aminosalicylic acid] has a biofilm formation of 82%. Compound O=C1Nc2ccc(Cl)cc2[C@@](C#CC2CC2)(C(F)(F)F)O1 [Efavirenz] has a biofilm formation of 71%. CCC(C)(C)C(=O)O[C@H]1C[C@@H](C)C=C2C=C[C@H](C)[C@H](CC[C@@H]3C[C@@H](O)CC(=O)O3)[C@H]21 [Simvastatin] showed a biofilm formation of 62%. CC(=O)Oc1ccc(C(c2ccc(OC(C)=O)cc2)c2ccccn2)cc1 [Bisacodyl] was tested, and the biofilm formation was 68%. CCCc1nn(C)c2c(=O)[nH]c(-c3cc(S(=O)(=O)N4CCN(C)CC4)ccc3OCC)nc12 [Sildenafil] showed a biofilm formation of 121%. Work on CCCNC(C)(C)COC(=O)c1ccccc1 [Meprylcaine hydrochloride] yielded a biofilm formation of 70%. Work on C[N+](C)(CCOc1ccccc1)Cc1ccccc1.O=C([O-])c1cc2ccccc2cc1O [Bephenium hydroxynaphthoate] yielded a biofilm formation of 56%. CC(NCCc1ccc(O)cc1)C(O)c1ccc(O)cc1 (stereo not drawn) [Ritodrine hydrochloride] was tested, and the biofilm formation was 82%. Compound CCC1(C)CC(=O)NC1=O (stereo not drawn) [Ethosuximide] has a biofilm formation of 71%. With NC1CCN(c2c(F)cc3c(=O)c(C(=O)O)cn(C4CC4)c3c2Cl)C1 (stereo not drawn) [Clinafloxacin] the biofilm formation was 14%. CCc1nn(CCCN2CCN(c3cccc(Cl)c3)CC2)c(=O)n1CCOc1ccccc1 [Nefazodone hydrochloride] was tested, and the biofilm formation was 78%. CCOC(=O)C1=C(C)NC(C)=C(C(=O)OC)C1c1cccc(Cl)c1Cl (stereo not drawn) [Felodipine] gave a biofilm formation of 104%. With C[C@H](CCC(=O)O)[C@H]1CC[C@H]2[C@@H]3C(=O)C[C@@H]4CC(=O)CC[C@]4(C)[C@H]3CC(=O)[C@]12C [Dehydrocholic acid] the biofilm formation was 139%. In the case of O=C1c2c(O)ccc(O)c2C(=O)c2c(NCCNCCO)ccc(NCCNCCO)c21 [Mitoxantrone dihydrochloride], the biofilm formation is reported as 129%. O=C(NC(Cc1cc(=O)[nH]c2ccccc12)C(=O)O)c1ccc(Cl)cc1 (stereo not drawn) [Rebamipide] was tested, and the biofilm formation was 66%. For C[N+](C)(C)CCOC(N)=O [Carbachol], the biofilm formation was 80%.

— the supplement of paper PMC7580552
